Data published in PubChem BioAssay AID624415 (National Center for Advancing Translational Sciences (NCATS), 2012).
About 60 (0.02%) of roughly 390,000 compounds were called active. The inconclusive results got no clear call from the source; some entries with a clear call stand among them for comparison. Rule as the data show it: active = activity change below about -50%; inconclusive = between about -30% and that limit; inactive = weaker than that.
% is scaled to controls: 0 for no effect and ±100 for the full control effect.
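Also: stimulus is agonist 54-4 at its EC80 concentration.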

By UniProt entry, the sequences of proteins in these tests, tags left out.
UniProt Q9GZU1, whole entry, looked up: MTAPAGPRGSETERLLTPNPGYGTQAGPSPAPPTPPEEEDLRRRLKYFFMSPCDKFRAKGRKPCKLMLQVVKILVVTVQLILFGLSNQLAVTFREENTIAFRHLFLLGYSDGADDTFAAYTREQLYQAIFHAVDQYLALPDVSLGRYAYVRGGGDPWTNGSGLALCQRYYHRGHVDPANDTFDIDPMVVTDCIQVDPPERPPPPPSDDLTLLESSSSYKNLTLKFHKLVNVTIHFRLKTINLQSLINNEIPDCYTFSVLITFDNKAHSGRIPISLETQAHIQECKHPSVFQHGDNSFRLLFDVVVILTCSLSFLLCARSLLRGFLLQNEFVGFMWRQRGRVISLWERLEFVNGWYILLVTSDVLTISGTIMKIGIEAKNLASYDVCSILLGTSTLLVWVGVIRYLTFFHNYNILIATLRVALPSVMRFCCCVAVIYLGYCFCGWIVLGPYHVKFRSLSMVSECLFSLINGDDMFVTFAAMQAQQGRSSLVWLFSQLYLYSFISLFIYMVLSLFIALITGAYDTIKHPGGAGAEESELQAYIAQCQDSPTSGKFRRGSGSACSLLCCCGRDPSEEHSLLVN

These compounds were tested against Mucolipin-1 (Homo sapiens) (UniProt Q9GZU1) (assay: qHTS for Inhibitors of the Human Mucolipin Transient Receptor Potential 1 (TRPML1)). Conditions: TRPML1-inducible cells, Ca2+ dye fluorescence, FDSS; active compounds read low; inhibition of EC80 agonist-evoked calcium signal.
Procedure, shortened: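 TRPML1-DL cells, Tet-induced overnight (~16 h, 37 °C) at 1,500 cells/well, were loaded with Ca8 no-wash dye plus quencher for 45-90 min at room temperature. Compounds were pinned during FDSS kinetic reading; agonist 54-4 at EC80 (4 uM final) then added.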
In the case of COc1cc(NC(=O)c2c(-c3ccc(C)cc3)nnc3ccccc23)cc(OC)c1OC, the activity change, negative = inhibition is reported as inconclusive: -35.9%.
For CS(=O)(=O)N1CCN(C(=O)c2ccncc2)CC1, the activity change, negative = inhibition was inconclusive: -36.3%.
With C=CCn1c(CCc2cc(C(C)(C)C)c(O)c(C(C)(C)C)c2)n[nH]c1=S the activity change, negative = inhibition was inactive: 25.1%.
Cc1noc(C)c1CSc1nc2ccccc2s1 was tested, and the activity change, negative = inhibition was inconclusive: -34.7%.
For COc1ccc2c(c1)CCC1C2=NN(/C(C)=C/C(C)=O)C1c1cccc(F)c1 (stereo not given), the activity change, negative = inhibition was inactive: -17.4%.
COc1ccccc1-c1c(C)oc2c(CN3CCOCC3)c(O)ccc2c1=O was tested, and the activity change, negative = inhibition was inactive: 12%.
With COc1cc(OC)cc(C(=O)Nc2cccc(NC(=O)c3ccccc3)c2)c1 the activity change, negative = inhibition was inactive: 0.205%.
With Cc1ccc(CN2C(=O)N/C(=C\c3ccc(N4CCOCC4)cc3)C2=O)cc1 the activity change, negative = inhibition was inactive: 3.67%.
With Cc1coc2c1C(=O)C(=O)c1c-2ccc2c1CCCC2(C)C the activity change, negative = inhibition was inactive: -4.77%.
In the case of Cc1noc(C)c1C(=O)Nc1sc(C)c(C)c1C#N, the activity change, negative = inhibition is reported as inconclusive: -31.8%.
CCCc1nn2c(=O)cc(COC(=O)c3cccc(NC(=O)CCc4ccccc4)c3)nc2s1 was tested, and the activity change, negative = inhibition was active: -62.2%.
With COc1ccc(C(=O)Nc2cc3c4c(c2)CC(=O)N4CCC3)cc1 the activity change, negative = inhibition was inconclusive: -30.5%.
In the case of CN(C)Cc1csc(NC(=O)Nc2ccccc2-c2ccccc2)n1, the activity change, negative = inhibition is reported as inconclusive: -36.6%.
With COc1cc(Nc2nc(SCc3ccccc3F)nc3ccccc23)cc(OC)c1 the activity change, negative = inhibition was inconclusive: -37%.
In the case of CC(C)(Cc1ccc(O)cc1)NC(=O)CC(=O)N/N=C/c1ccc(Cl)cc1, the activity change, negative = inhibition is reported as inactive: 11.4%.
For Cc1cccc(NC(=O)CN(c2ccc(F)cc2)S(C)(=O)=O)c1, the activity change, negative = inhibition was inconclusive: -42.5%.
For CC(C)C(OC(=O)c1nsc(Cl)c1Cl)C(=O)NCC1CCCO1 (stereo not given), the activity change, negative = inhibition was inconclusive: -30.5%.
With COC(=O)c1ccc(C(=O)OC)c(-n2c(=O)c3ccccc3c3ccccc3c2=O)c1 the activity change, negative = inhibition was inconclusive: -38.4%.
In the case of CCCC(=O)N1CCC1(C)C(=O)NS(=O)(=O)c1ccc(F)cc1F (stereo not given), the activity change, negative = inhibition is reported as inconclusive: -35.5%.
CN(Cc1nc(-c2cccs2)no1)CC1(N2CCOCC2)CCCCC1 was tested, and the activity change, negative = inhibition was inconclusive: -37.4%.
For O=C1NC(c2ccccc2)C(c2ccccc2)N1 (stereo not given), the activity change, negative = inhibition was inconclusive: -33.7%.
In the case of O=C(N/C(=C\c1ccco1)C(=O)N1CCOCC1)c1ccco1, the activity change, negative = inhibition is reported as inconclusive: -30.2%.
With CCc1cc2ccccc2nc1SCC(=O)Nc1cc(OC)c(OC)cc1C(=O)O the activity change, negative = inhibition was inconclusive: -30.6%.
COc1cccc(CN2CCN(Cc3cccc4c3OCO4)CC2CCO)c1 (stereo not given) was tested, and the activity change, negative = inhibition was inactive: 11.3%.
With Cc1ccc(C(c2sc3nc(-c4ccco4)nn3c2O)N2CCN(Cc3ccccc3)CC2)cc1 (stereo not given) the activity change, negative = inhibition was inconclusive: -32.4%.
For Cn1c(=O)c2c(nc3n2CCCN3CCc2ccccc2)n(C)c1=O, the activity change, negative = inhibition was inconclusive: -36.6%.
COc1cc(N2C(=O)NC3CC2(C)Oc2ccccc23)cc(OC)c1OC (stereo not given) was tested, and the activity change, negative = inhibition was inconclusive: -36%.
With O=C(NCCN1CCOCC1)C1(C(F)(F)F)C/C(=C/CCO)CCCO1 (stereo not given) the activity change, negative = inhibition was inactive: 15.9%.
For COc1ccc(N2CCN(C(=O)c3oc4ccccc4c3NC(=O)c3ccccc3OC)CC2)cc1, the activity change, negative = inhibition was inconclusive: -38.7%.
For COC(=O)Cc1ccc(OC(=O)CCS(=O)(=O)c2ccc(C)cc2)cc1, the activity change, negative = inhibition was inconclusive: -35%.
COc1ccc(-c2nc(NC(=O)c3ccc(OCC(=O)Nc4ccc(F)cc4)c(OC)c3)sc2C)cc1 was tested, and the activity change, negative = inhibition was inconclusive: -34.7%.
With Cc1ccc(-c2ccc(=O)n(CC(=O)NCc3ccc(F)cc3)n2)cc1 the activity change, negative = inhibition was inconclusive: -32.8%.
In the case of Fc1ccc(CSc2nnc(-c3cccnc3)o2)cc1, the activity change, negative = inhibition is reported as inconclusive: -30.6%.
With O=c1cc(CN2CCN(Cc3ccccc3)CC2)c2ccc(O)cc2o1 the activity change, negative = inhibition was inactive: -4.93%.
In the case of CN1OC[C@@H]2CN[C@H](c3ccc(-c4cccc(F)c4)cc3)C[C@@H]21, the activity change, negative = inhibition is reported as inactive: 10.2%.
CCOc1cc(C2c3c(-c4ccccc4O)n[nH]c3C(=O)N2CCc2ccccc2)ccc1O (stereo not given) was tested, and the activity change, negative = inhibition was inactive: -17.9%.
Cn1c(N)c(C(=O)CN2CCc3ccccc3C2)c(=O)n(C)c1=O was tested, and the activity change, negative = inhibition was inconclusive: -35.1%.
CCOc1ccc(CCNC(=O)c2ccc3nc(CC)c(CC)nc3c2)cc1 was tested, and the activity change, negative = inhibition was inconclusive: -38.6%.
NS(=O)(=O)Nc1c(Br)cc(Br)c2cccnc12 was tested, and the activity change, negative = inhibition was inactive: -9.15%.
CCCn1c(N2CCN(C(=O)Nc3ccc(Cl)cc3)CC2)nc2ccccc21 was tested, and the activity change, negative = inhibition was inactive: -9.56%.
Cc1ccc(S(=O)(=O)c2c(C)nn(-c3ccccc3)c2OC(=O)c2ccccc2F)cc1 was tested, and the activity change, negative = inhibition was inconclusive: -40.8%.
Cc1ccccc1NC(=O)CCc1c(C)nn(-c2ccc(N3CCOCC3)nn2)c1C was tested, and the activity change, negative = inhibition was inconclusive: -34.6%.
For CCC1CN(C(=O)N2CCC(C(=O)NCc3cccs3)CC2)c2cc(C)ccc2O1 (stereo not given), the activity change, negative = inhibition was inconclusive: -30.6%.
In the case of CC(C)(C)OC(=O)N1CCC(c2c(C(=O)NCc3ccco3)cnn2-c2ccc(F)cc2)CC1, the activity change, negative = inhibition is reported as inconclusive: -31.9%.
For Cc1ccc(C)c(-c2cc(C(=O)N/N=C/c3cccnc3)c3ccccc3n2)c1, the activity change, negative = inhibition was inconclusive: -31%.
With O=C(Nc1ccc(N2CCOCC2)cc1)c1csc(COCCO)n1 the activity change, negative = inhibition was inconclusive: -36.8%.
Cc1cc(O)cc2c1C(=O)/C(=C/c1ccco1)O2 was tested, and the activity change, negative = inhibition was inconclusive: -32.7%.
CC(OC(=O)C1CC(=O)N(Cc2ccco2)C1)C(=O)Nc1ccccc1[N+](=O)[O-] (stereo not given) was tested, and the activity change, negative = inhibition was inactive: 11.7%.
For COc1ccc(N(CC(=O)NC2CCCC2)C(=O)Cn2nnc(-c3ccc(C)o3)n2)c(OC)c1, the activity change, negative = inhibition was inconclusive: -35.9%.
For COc1ccc(C(C)C)cc1S(=O)(=O)Nc1ncn[nH]1, the activity change, negative = inhibition was inconclusive: -33.4%.
For O=C(N/N=C/c1ccsc1)c1ccccn1, the activity change, negative = inhibition was inconclusive: -30.6%.
For COc1ccc(C)cc1NCC(=O)Nc1ccc(C(C)(C)C)cc1, the activity change, negative = inhibition was inconclusive: -33%.
With Cc1ccc(N=Cc2c(O)n(-c3ccc4c(c3)OCO4)c(=O)c3ccccc23)cc1 the activity change, negative = inhibition was inactive: 1.96%.
For Fc1cccc2sc(Nc3nnc(-c4ccccc4)o3)nc12, the activity change, negative = inhibition was inactive: 1.78%.
In the case of Cc1ccc(NC(=O)N2CCc3c([nH]c4ccccc34)C2c2ccccc2F)c(Cl)c1 (stereo not given), the activity change, negative = inhibition is reported as inactive: 10.7%.
